Experimental data published in PubChem BioAssay AID504648 (National Center for Advancing Translational Sciences (NCATS), 2011).
The whole screen tested about 390,000 compounds, of which about 610 (0.16%) were called active. This list was built around the results that the source calls inconclusive (neither active nor inactive); the mix of calls is not that of the screen. Calls come from the whole dose curve; as a rule, active = well fitted inhibition curve with a large enough effect; inconclusive = small, poorly fitted or top-dose-only effect, or effect the other way, or another doubt; inactive = no such curve, though single readings can be large or run the other way. A potency beside an inconclusive call is a rough fit, not a confirmed value.
% is set by controls: 0 for no effect and ±100 for the full control effect; potency is the fitted concentration of half-maximal effect.

Test: Nrf2 qHTS screen for inhibitors: counterscreen for cytotoxicity
Details: A549 ARE-Fluc cells, CellTiter-Fluor viability, 18-24 h; activity change, negative = cytotoxicity: at 46 µM (top of the series)
How it was run: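 A549 ARE_Fluc cells in 5% FBS OPTI-MEM were exposed to compounds in concentration-response for 18-24 h at 37 deg C. Viability was read by CellTiter-Fluor fluorescence (Ex 405/Em 525) after 30 min, before the luciferase read.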
In the case of `Cc1ccc(OCCn2c(CNc3cccc(C)c3)nc3ccccc32)cc1`, the “activity change, negative = cytotoxicity” value is reported as inactive: -2.54%.
With `CC(=O)NC(Cc1c[nH]c2ccccc12)C(=O)NCc1ccc2c(c1)OCO2` (centres undefined) the Potency was inconclusive: 18.4 µM [activator, partial curve, poor fit].
In the case of `COc1cccc(C2=CC(c3ccc(OC)c(OC)c3OC)n3nnnc3N2)c1` (centres undefined), the “activity change, negative = cytotoxicity” value is reported as inactive: -2.41%.
With `O=C(Cn1c(=O)[nH]c2ccsc2c1=O)N1CCN(c2ccc(F)cc2)CC1` the “activity change, negative = cytotoxicity” value was inactive: -3.09%.
In the case of `O=C(COC(=O)CSc1ccc(Cl)cc1)Nc1ccccc1`, the Potency is reported as inconclusive: 18.4 µM [falling, single point].
With `COc1ccc(C2/C=C\CN(C(=O)Oc3ccc(C(F)(F)F)cc3)CC(=O)N2Cc2ccc(F)cc2)cc1` (centres undefined) the Potency was inconclusive: 18.4 µM [falling, partial curve, poor fit].
With `O=[N+]([O-])c1cccc(S(=O)(=O)Nc2cccc(-c3ccc(N4CCOCC4)nn3)c2)c1` the “activity change, negative = cytotoxicity” value was inactive: 1.08%.
For `CC1=NN(S(=O)(=O)c2ccc(C)cc2)C(=O)c2ccccc2O1`, the “activity change, negative = cytotoxicity” value was inactive: -0.376%.
In the case of `CC(=O)N1c2ccc(S(=O)(=O)Nc3ccc(C)c(C)c3)cc2CC1C` (centres undefined), the Potency is reported as inconclusive: 32.6 µM [falling, partial curve, poor fit].
With `CC(=O)Nc1ccc(Nc2nc(C)nc3c2oc2ccccc23)cc1` the “activity change, negative = cytotoxicity” value was inactive: -2.47%.
In the case of `CC1CCN(CCc2nc3cc(NC(=O)COc4ccc(Cl)cc4)ccc3n2C)CC1`, the “activity change, negative = cytotoxicity” value is reported as inactive: -19.9%.
In the case of `O=C(CN1CCN(Cc2ccccc2)CC1)c1ccc(Br)cc1`, the Potency is reported as inconclusive: 25.9 µM [falling, partial curve, poor fit].
For `O=C(NCC(c1cccs1)N1CCOCC1)C1CCN(S(=O)(=O)c2c(Cl)cccc2Cl)CC1` (centres undefined), the “activity change, negative = cytotoxicity” value was inactive: -14.8%.
With `O=C(Cc1cc(=O)oc2cc(O)ccc12)NCC1CCC(C(=O)O)CC1` (centres undefined) the Potency was inconclusive: 16.4 µM [activator, single point].
For `CCN(CC)CCN1C(=O)/C(=C\c2ccc(Cl)c([N+](=O)[O-])c2)SC1=Nc1ccc(OC)cc1`, the “activity change, negative = cytotoxicity” value was inactive: -13.9%.
In the case of `COc1ccccc1CNS(=O)(=O)c1cc(C(=O)Nc2cccc(C(F)(F)F)c2)ccc1F`, the Potency is reported as inconclusive: 32.6 µM [falling, single point].
In the case of `Cc1c(CC(=O)NCCc2ccccc2F)c(=O)oc2c(C)c3occ(C(C)(C)C)c3cc12`, the “activity change, negative = cytotoxicity” value is reported as inactive: -3.47%.
In the case of `N#Cc1cc([N+](=O)[O-])cnc1N(CCO)CCO`, the “activity change, negative = cytotoxicity” value is reported as inactive: -10.7%.
For `CCOc1ccc(-c2nc(CSCC(=O)N3CCN(c4cccc(C(F)(F)F)c4)CC3)c(C)o2)cc1`, the Potency was inconclusive: 29.1 µM [falling, single point].
With `CCN(CC)C(=O)c1sc(NC(=O)c2ccc(C)c([N+](=O)[O-])c2)c(C#N)c1C` the Potency was inconclusive: 10.3 µM [falling, partial curve].
With `CC1(C)NC(=O)N(CCCCOc2ccc(Br)cc2Cl)C1=O` the Potency was inconclusive: 14.6 µM [falling, single point].
In the case of `CCN(CC(=O)NCc1cccs1)C(=O)c1cccc(Cl)c1`, the Potency is reported as inconclusive: 1.46 µM [activator, partial curve, poor fit].
For `NC(=O)C[C@@H]1NC(=O)CNC(=O)c2cc([N+](=O)[O-])cc(I)c2NCCC(C(N)=O)NC1=O` (some centres undefined), the Potency was inconclusive: 16.4 µM [falling, partial curve, poor fit].
In the case of `Cc1ccc(NC(=O)CC2C(=O)N(Cc3ccccc3)C(=S)N2NC(=O)c2ccccc2)c(C)c1` (centres undefined), the Potency is reported as inconclusive: 20.6 µM [falling, single point].
With `CCCNS(=O)(=O)c1ccc(CCC(=O)Nc2cc(Cl)ccc2Oc2ccccc2)cc1` the Potency was inconclusive: 14.6 µM [falling, partial curve].
For `O=C(CSc1n[nH]c(=O)n1C1CC1)Nc1cc(Cl)ccc1Oc1ccccc1`, the Potency was inconclusive: 29.1 µM [falling, single point].
In the case of `O=[N+]([O-])c1ccc(-c2nc(-c3ccncc3)no2)cc1`, the “activity change, negative = cytotoxicity” value is reported as inactive: 1.58%.
With `CC(C)=CCCC1=CCC(/C(C)=N/NC(N)=O)CC1` (centres undefined) the Potency was inconclusive: 29.1 µM [activator, single point].
For `CC(C)N1CCOC1c1ccccc1` (centres undefined), the “activity change, negative = cytotoxicity” value was inactive: -2.27%.
With `CN(C)c1ccc(/C=C/c2ccc3ccccc3[n+]2C)cc1` the Potency was active: 23.1 µM.
With `O=C(Nc1ccc2nc(SCC(=O)N3CCCc4ccccc43)sc2c1)c1cccc(F)c1` the “activity change, negative = cytotoxicity” value was inactive: -1.67%.
With `CC(=O)NC1=C(Nc2ccc(N(C)C)cc2)C(=O)c2ccccc2C1=O` the Potency was inconclusive: 23.1 µM [falling, single point].
For `C=CCSc1nc2c(c(=O)[nH]c(=O)n2C)n1Cc1ccccc1`, the Potency was inconclusive: 23.1 µM [activator, single point].
For `Cc1noc(C)c1COc1ccccc1C(=O)N(C)CC(=O)Nc1ccc(Cl)c(Cl)c1`, the Potency was inconclusive: 29.1 µM [falling, single point].
With `CCCCn1c(N)c(N(CCC(C)C)C(=O)CCCc2nc3ccccc3s2)c(=O)[nH]c1=O` the “activity change, negative = cytotoxicity” value was inactive: 0.0946%.
For `COc1cccc(-n2nc(C#N)c(Cl)cc2=O)c1`, the Potency was inconclusive: 29.1 µM [falling, single point].
In the case of `CCN1C(=O)/C(=C2/Sc3ccccc3N2CCCS(=O)(=O)O)SC1=S`, the Potency is reported as inconclusive: 32.6 µM [falling, partial curve, poor fit].
With `Cc1ccccc1-n1c(SCC(=O)Nc2ccc(Cl)cc2F)nnc1-c1cc2occc2n1C` the “activity change, negative = cytotoxicity” value was inactive: -28.7%.
In the case of `Cc1ccc(Cn2c(C(=O)O)c(CNCc3ccccc3Cl)c3ccc(C)cc32)cc1`, the Potency is reported as inconclusive: 18.4 µM [falling, single point].
In the case of `CN1/C(=C\C=N\NC(=O)c2cccnc2)C(C)(C)c2ccccc21`, the Potency is reported as inconclusive: 16.4 µM [falling, partial curve, poor fit].
In the case of `Cc1ccc2c(C)c(C(=O)N3CCN(c4ccncc4)CC3)oc2c1C`, the Potency is reported as inconclusive: 29.1 µM [falling, single point].
In the case of `Fc1ccc(NC(=S)Nc2cc(-c3ccccc3)[nH]n2)cc1Cl`, the Potency is reported as inconclusive: 23.1 µM [falling, single point].
With `COc1ccc(Cc2nc3ccc(C(=O)N4C[C@@H](C)O[C@@H](C)C4)cc3o2)cc1OC` the “activity change, negative = cytotoxicity” value was inactive: -5.19%.
For `COc1cc(-c2noc(CN3CCN(c4ccccc4)CC3)n2)cc(OC)c1OC`, the “activity change, negative = cytotoxicity” value was inactive: 2.53%.
In the case of `CCC(C(=O)OCC(=O)NCc1ccc2c(c1)OCO2)c1ccccc1` (centres undefined), the “activity change, negative = cytotoxicity” value is reported as inactive: -1.87%.
In the case of `CCN(CC)C(=O)CC(c1ccc(OC)cc1)c1c(OC)cc(OC)c2c(-c3ccccc3)cc(=O)oc12` (centres undefined), the Potency is reported as inconclusive: 29.1 µM [falling, single point].
For `CC(C)Cn1c(O)c(/C=C2\C=NN=C2c2ccccc2)sc1=S`, the Potency was inconclusive: 25.9 µM [falling, single point].
In the case of `CN(c1ccccc1)S(=O)(=O)c1cccc(NC(=O)c2ccc(Cl)c([N+](=O)[O-])c2)c1`, the “activity change, negative = cytotoxicity” value is reported as inactive: 5.85%.
With `CCCc1cc(=O)oc2cc(C)cc(OCC(=O)Nc3ccc(S(N)(=O)=O)cc3)c12` the “activity change, negative = cytotoxicity” value was inactive: -8.35%.
For `CCOc1ccc(-n2c(Cc3ccccc3)nnc2SCc2nc(-c3ccccc3OC)no2)cc1`, the Potency was inconclusive: 13 µM [falling, partial curve, poor fit].
For `CC(=NN(Cc1ccccc1)c1ccccc1)c1ccccc1`, the Potency was inconclusive: 0.651 µM [activator, partial curve, poor fit].
In the case of `CCOc1ccc(C2C3=C(CC(C)(C)CC3=O)N(CC(=O)O)C3=C2C(=O)CC(C)(C)C3)cc1OCC`, the Potency is reported as inconclusive: 29.1 µM [falling, partial curve, poor fit].
For `O=[N+]([O-])c1ccc(NCCNc2ccc([N+](=O)[O-])cc2)cc1`, the “activity change, negative = cytotoxicity” value was inactive: -7.6%.
For `O=C(CCN1C(=O)C2C3C=CC(C3)C2C1=O)NCc1cccnc1` (centres undefined), the “activity change, negative = cytotoxicity” value was inactive: -6.24%.
With `Clc1cccc(N2CCN(c3ncnc4c3nc3n4CCCCC3)CC2)c1` the Potency was inconclusive: 32.6 µM [falling, partial curve, poor fit].
With `CCN(c1ccccc1)S(=O)(=O)c1ccc(OC)c(NC(=O)c2cc(F)c(F)c(F)c2F)c1` the “activity change, negative = cytotoxicity” value was inactive: -1.27%.
For `Cc1cccc[n+]1CC(=O)/C=C1\N(C)c2ccccc2C1(C)C`, the Potency was inconclusive: 23.1 µM [falling, partial curve, poor fit].
For `CCCCN1C(=O)c2[nH]nc(-c3ccccc3O)c2C1c1cccc(OCc2ccccc2)c1` (centres undefined), the Potency was inconclusive: 23.1 µM [falling, single point].
With `COc1ccc(-c2nn(-c3ccccc3)cc2C(=O)O)cc1OC` the Potency was inconclusive: 23.1 µM [falling, partial curve, poor fit].
For `Cc1ccc(Nc2c(-c3ccc(C)o3)nc3cnccn23)cc1`, the Potency was “inactive”.
With `CN(CC(=O)Nc1ccccc1Sc1ccccc1)C1CCCCC1` the Potency was inconclusive: 29.1 µM [falling, single point].
In the case of `CC(=O)n1cc(N(C(=O)CCl)c2ccc(Cl)cc2)c2ccccc21`, the Potency is reported as inconclusive: 29.1 µM [falling, single point].
With `O=S(=O)(Nc1cccc2cccnc12)c1cccc2ccccc12` the “activity change, negative = cytotoxicity” value was inactive: -23.3%.
With `O=C(c1ccccn1)N(Cc1ccco1)C1(C(=O)NC2CCCCC2)CCCCC1` the Potency was inconclusive: 7.31 µM [falling, partial curve, poor fit].
With `Cc1ccc(NC(=O)COc2ccc(Cl)cc2Cl)cc1S(=O)(=O)N1CCOCC1` the Potency was inconclusive: 23.1 µM [falling, single point].
With `CCN(CC)CC#CCC(C)(c1ccccc1)c1ccccc1` the Potency was inconclusive: 20.6 µM [falling, single point].
For `O=C(NC1C/C=C\C(c2ccccc2)N(c2ccccc2)C(=O)C1)OCC1c2ccccc2-c2ccccc21` (centres undefined), the “activity change, negative = cytotoxicity” value was inactive: -0.772%.
With `CCN1CCN(S(=O)(=O)c2ccc(Cl)c(C(=O)NC(C)c3ccccc3Cl)c2)CC1` (centres undefined) the “activity change, negative = cytotoxicity” value was inactive: 5.54%.
With `CCc1ccc2c(c1)c(N=NC1=NC(=O)CS1)c(O)n2CC` the Potency was inconclusive: 32.6 µM [falling, partial curve, poor fit].
